Laboratory results as given in the supplement of paper PMC12823440, “Inhibitors supercharge kinase turnover through native proteolytic circuits” (Nature, 2025).
Where a name gives a salt, the structure may show the parent alone. This is one part of the list. Hit calls seldom repeat between salt and free forms of one compound.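 In K562 cells expressing nanoluciferase-fused kinases, luminescence was recorded at 4 h intervals between 2 and 18 h, normalized as percent of control with DMSO at 100% and a positive control at 0%. A significant (2 sigma) signal drop marks a time point as decreased. The authors' rule for a hit is not shown and takes in more than the number of time points.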

Sequences of proteins named here, by UniProt entry; tags and fusion partners are left off.
UniProt P42356, whole entry, looked up: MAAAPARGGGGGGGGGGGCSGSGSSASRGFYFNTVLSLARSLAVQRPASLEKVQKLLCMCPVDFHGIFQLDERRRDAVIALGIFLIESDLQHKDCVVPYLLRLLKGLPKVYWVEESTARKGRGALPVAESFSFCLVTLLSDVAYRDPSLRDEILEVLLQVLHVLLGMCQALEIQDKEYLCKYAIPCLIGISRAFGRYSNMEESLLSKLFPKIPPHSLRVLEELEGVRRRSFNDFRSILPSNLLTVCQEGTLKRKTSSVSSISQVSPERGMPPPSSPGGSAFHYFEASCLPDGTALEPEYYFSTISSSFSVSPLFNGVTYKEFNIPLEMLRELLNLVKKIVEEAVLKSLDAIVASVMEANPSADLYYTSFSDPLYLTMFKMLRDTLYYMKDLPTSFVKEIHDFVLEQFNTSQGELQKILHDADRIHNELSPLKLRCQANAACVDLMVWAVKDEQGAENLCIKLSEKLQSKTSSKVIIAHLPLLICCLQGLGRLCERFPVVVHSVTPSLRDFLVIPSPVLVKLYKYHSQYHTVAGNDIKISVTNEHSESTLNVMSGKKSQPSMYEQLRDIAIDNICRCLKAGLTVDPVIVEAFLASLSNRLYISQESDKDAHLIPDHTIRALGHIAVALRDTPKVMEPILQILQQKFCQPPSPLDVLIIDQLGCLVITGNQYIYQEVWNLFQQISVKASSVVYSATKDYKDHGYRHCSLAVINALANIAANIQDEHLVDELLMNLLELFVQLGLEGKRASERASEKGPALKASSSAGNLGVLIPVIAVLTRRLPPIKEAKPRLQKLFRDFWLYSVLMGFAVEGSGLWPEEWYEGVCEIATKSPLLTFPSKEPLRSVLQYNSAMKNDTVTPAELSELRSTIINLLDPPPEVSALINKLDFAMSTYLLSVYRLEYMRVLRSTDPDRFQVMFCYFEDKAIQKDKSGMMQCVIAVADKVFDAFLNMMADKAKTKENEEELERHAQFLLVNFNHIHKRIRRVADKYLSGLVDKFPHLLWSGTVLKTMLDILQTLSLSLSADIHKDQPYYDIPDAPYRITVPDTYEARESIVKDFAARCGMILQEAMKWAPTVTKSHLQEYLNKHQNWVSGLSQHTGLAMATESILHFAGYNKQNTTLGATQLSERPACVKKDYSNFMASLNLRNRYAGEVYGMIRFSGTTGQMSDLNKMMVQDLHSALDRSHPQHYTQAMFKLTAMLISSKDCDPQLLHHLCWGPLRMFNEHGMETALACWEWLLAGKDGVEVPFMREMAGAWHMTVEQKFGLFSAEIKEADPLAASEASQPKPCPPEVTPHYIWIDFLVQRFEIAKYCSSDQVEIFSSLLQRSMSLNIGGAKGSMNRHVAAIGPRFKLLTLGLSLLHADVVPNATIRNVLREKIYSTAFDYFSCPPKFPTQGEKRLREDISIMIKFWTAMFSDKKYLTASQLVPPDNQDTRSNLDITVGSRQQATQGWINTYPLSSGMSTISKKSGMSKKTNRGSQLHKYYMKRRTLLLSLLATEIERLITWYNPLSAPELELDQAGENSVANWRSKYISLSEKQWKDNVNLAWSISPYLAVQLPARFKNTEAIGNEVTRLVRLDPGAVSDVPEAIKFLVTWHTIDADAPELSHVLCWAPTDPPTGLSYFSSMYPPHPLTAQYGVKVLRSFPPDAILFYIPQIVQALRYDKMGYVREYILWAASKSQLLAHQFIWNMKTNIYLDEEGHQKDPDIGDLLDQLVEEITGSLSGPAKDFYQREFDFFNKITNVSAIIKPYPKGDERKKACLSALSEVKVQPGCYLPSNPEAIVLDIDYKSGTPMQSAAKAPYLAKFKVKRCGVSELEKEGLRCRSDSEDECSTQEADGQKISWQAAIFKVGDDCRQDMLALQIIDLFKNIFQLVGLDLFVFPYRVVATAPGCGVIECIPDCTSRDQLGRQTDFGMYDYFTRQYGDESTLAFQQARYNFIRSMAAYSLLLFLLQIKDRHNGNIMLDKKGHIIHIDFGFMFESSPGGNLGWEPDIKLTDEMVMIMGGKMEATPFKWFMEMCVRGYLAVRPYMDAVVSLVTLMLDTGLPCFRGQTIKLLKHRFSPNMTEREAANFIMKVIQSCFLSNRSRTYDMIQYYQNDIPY

Each compound was assayed against PIK4CA (UniProt P42356) (assay: kinase-Nluc reporter destabilization hit call (1 = scored as downregulated) (binary); higher = compound decreases kinase abundance). Conditions: K562; 2-18 h.

Structure (SMILES)	kinase-Nluc reporter destabilization hit call
C=CC(=O)N1CCC[C@@H](n2c(=O)n(-c3ccc(Oc4ccccc4)cc3)c3c(N)nccc32)C1 [Tolebrutinib] (10 µM)	inactive: 0
C[C@]1(O)C[C@@](N)(c2ccc(-c3nc4n(c3-c3ccccc3)COc3ccncc3-4)cc2)C1 [TAS-117 (hydrochloride)] (10 µM)	inactive: 0
CCOC(=O)C1=C[C@]2(CC)CCCN3CCc4c(n1c1ccccc41)[C@@H]32 [Vinpocetine] (10 µM)	inactive: 0
CC(C)(C)NS(=O)(=O)c1cncc(-c2cc(F)c3nc(N)nn3c2)c1 (10 µM)	inactive: 0
CC(C)(C)c1ccc(C(=O)Nc2cn3cc(-n4ccnc4)ccc3n2)cc1 (10 µM)	inactive: 0
Cc1nc(NC(=O)N2CCC[C@H]2C(N)=O)sc1-c1csc(C(C)(C)C)n1 (10 µM)	inactive: 0
N#Cc1cn([C@@H]2O[C@H](CO)[C@@H](O)[C@H]2O)c2nc[nH]c(=O)c12 [Jaspamycin] (10 µM)	inactive: 0
Cc1ccc(-c2csc(Cn3nc(CC4OCCCO4)c4ccccc4c3=O)n2)cc1 (10 µM)	inactive: 0
CNC(=O)c1c(C)oc2cc(Oc3ncnc4cc(OC)c(OC)cc34)ccc12 [Fruquintinib] (10 µM)	inactive: 0
O=S(=O)(N=Cc1c(O)ccc2ccccc12)c1cccs1 (10 µM)	inactive: 0
NC(=O)c1cccc2c(N[C@H](CN3CCC3)c3ccc(Cl)c(C(F)(F)F)c3)ncnc12 (10 µM)	inactive: 0
CN1CCC(c2ccccc2CC(C)(C)Nc2nc(N3CCOCC3)nc(-n3c(S(C)(=O)=O)nc4ccccc43)n2)CC1 (10 µM)	inactive: 0
O=c1ccc2cc(O)c(O)cc2o1 [Esculetin] (10 µM)	inactive: 0
O=C(Nc1nc2cccc(-c3ccc(CN4CCS(=O)(=O)CC4)cc3)n2n1)C1CC1 [Filgotinib] (2.5 µM)	inactive: 0
CC(C)(O)c1cc2nc(-c3cnc(N)nc3)nc(N3CCOCC3)c2s1 (2.5 µM)	inactive: 0
Cn1cc(-c2ccc3ncc(Cc4ccc5ncccc5c4)n3n2)cn1 (10 µM)	inactive: 0
CC(=O)c1cc(O)ccc1O [2,5-Dihydroxyacetophenone] (10 µM)	inactive: 0

3 entries from above, sorted by heavy-atom count, rising:
Structure (SMILES)	kinase-Nluc reporter destabilization hit call
CCOC(=O)C1=C[C@]2(CC)CCCN3CCc4c(n1c1ccccc41)[C@@H]32 [Vinpocetine] (10 µM)	inactive: 0
CC(C)(C)c1ccc(C(=O)Nc2cn3cc(-n4ccnc4)ccc3n2)cc1 (10 µM)	inactive: 0
CN1CCC(c2ccccc2CC(C)(C)Nc2nc(N3CCOCC3)nc(-n3c(S(C)(=O)=O)nc4ccccc43)n2)CC1 (10 µM)	inactive: 0

The list goes on:

Structure (SMILES)	kinase-Nluc reporter destabilization hit call
COc1ccc(COc2cc3oc(=O)c4cc(C(C)O)ccc4c3cc2OC)cc1 (stereo not drawn) [Palomid 529] (2.5 µM)	inactive: 0
O=C(CC(c1ccccc1)C(C(=O)O)C(=O)O)c1ccc(C(F)(F)F)cc1 (stereo not drawn) (10 µM)	inactive: 0
CC(C)[C@H](CO)Nc1nc(Nc2ccc(C(=O)O)c(Cl)c2)c2ncn(C(C)C)c2n1 [Purvalanol B] (10 µM)	inactive: 0
COc1cc2nccc(Oc3ccc(NC(=O)Nc4ccc(F)cc4F)c(F)c3)c2cc1OC (10 µM)	inactive: 0
N#C/C(=C\c1ccc[nH]1)c1ccc(Cl)c(Cl)c1 (2.5 µM)	inactive: 0
O=c1cc(-c2ccc(O)cc2)oc2cc(O)c(O)c(O)c12 [Scutellarein] (10 µM)	inactive: 0
CC(C)n1nc(C#Cc2ccccc2)c2c(N)ncnc21 (10 µM)	inactive: 0
O=C(N=c1sccn1Cc1ccccc1)c1c[nH]c2ncccc12 (10 µM)	inactive: 0
CC(C)=C/C=C1\O[C@@H]2CC(C)=CC(=O)[C@@H]2[C@]1(C)O [Bisabolangelone] (10 µM)	inactive: 0
COc1ccc(C2CC(c3ccc(Cl)cc3)=NN2c2nc(-c3ccncc3)cs2)cc1 (stereo not drawn) [mTOR inhibitor-8] (10 µM)	inactive: 0
Cc1cc(F)c(Nc2ncnc3cc(OCc4ccccc4)ccc23)cc1O (10 µM)	inactive: 0
CNCCOc1ccccc1C(C)(C)Nc1nccn(-c2cc(C(=O)NC3CC3)ccc2C)c1=O [p38α inhibitor 2] (10 µM)	inactive: 0
CCn1c(-c2nonc2N)nc2c(C#CCO)ncc(OCCCN)c21 [AKT Kinase Inhibitor] (10 µM)	inactive: 0
NC(=O)c1nc(-c2c(F)cccc2Cl)oc1Nc1ccc(C(=O)N2CCOCC2)cc1 (10 µM)	inactive: 0
O=C(NCc1cccc(O)c1)c1cc2cc(F)ccc2[nH]1 (10 µM)	inactive: 0
Cc1nc(Nc2ncc(C(=O)Nc3c(C)cccc3Cl)s2)cc(N2CCN(C(=O)CCCCCCC(=O)N[C@H](C(=O)N3C[C@H](O)C[C@H]3C(=O)NCc3ccc(-c4scnc4C)cc3)C(C)(C)C)CC2)n1 (2.5 µM)	inactive: 0
